Paper PMC6320914 (Pharmaceutics, 2018)

test: general procedure: Fmoc solid-phase peptide synthesis; Rink-Amide MBHA resin (0.73 mmol/g) or Fmoc-Ethyl-Indole AM resin (0.94 mmol/g); DIC/HOBt; settings: whole synthesis, 220 nm

Substance | final HPLC purity [%]
[^3D-Tic, ^4Lys(Bu)] | ≥97
[^3D-Tic, ^7D-Trp] | >97
[^4Lys(Bu), ^6Asp(OMe)] | ≥98
[^2ΔHis, ^3D-Tic] | ≥95
[^2ΔHis, ^3D-Tic, ^4Lys(Bu)] | ≥96
[^4Lys(Bu), ^10ΔGly-NHEt] | ≥97
[^2ΔHis, ^3D-Tic, ^4Lys(Bu), ^7D-Trp] | ≥98
[^3D-Trp, ^4Lys(Bu)] | ≥98
[^3D-Tic, ^4Lys(Bu), ^7D-Trp] | ≥96
[^10ΔGly-NHEt] | ≥97
[^2ΔHis, ^3D-Tic, ^7D-Trp] | ≥95
